## Percent effect of library compounds

Chains of the proteins cited; added tags and fusions are not shown. Residues count along the entry.
UniProt P9WNZ1, whole entry: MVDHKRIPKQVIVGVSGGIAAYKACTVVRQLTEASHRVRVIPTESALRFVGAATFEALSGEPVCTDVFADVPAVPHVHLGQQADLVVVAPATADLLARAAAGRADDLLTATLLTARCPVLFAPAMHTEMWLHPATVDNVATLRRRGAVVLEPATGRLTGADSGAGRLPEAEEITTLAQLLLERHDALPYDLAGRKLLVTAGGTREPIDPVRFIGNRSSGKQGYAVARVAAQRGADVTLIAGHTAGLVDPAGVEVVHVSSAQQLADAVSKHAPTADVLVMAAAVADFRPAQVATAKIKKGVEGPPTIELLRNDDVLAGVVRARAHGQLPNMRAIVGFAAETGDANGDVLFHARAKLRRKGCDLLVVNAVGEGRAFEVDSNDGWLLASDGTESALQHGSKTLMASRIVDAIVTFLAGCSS
UniProt P9WFT3, whole entry: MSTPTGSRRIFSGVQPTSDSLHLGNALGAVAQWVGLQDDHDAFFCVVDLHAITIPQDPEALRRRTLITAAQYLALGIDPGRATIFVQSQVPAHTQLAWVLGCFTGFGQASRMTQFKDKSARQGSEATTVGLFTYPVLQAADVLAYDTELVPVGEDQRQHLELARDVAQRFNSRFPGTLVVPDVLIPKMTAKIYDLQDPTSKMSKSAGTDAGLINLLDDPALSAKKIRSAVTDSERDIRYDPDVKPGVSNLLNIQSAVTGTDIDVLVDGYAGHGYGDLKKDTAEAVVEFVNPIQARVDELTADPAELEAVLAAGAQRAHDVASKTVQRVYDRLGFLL
UniProt Q4DA54, 1-478: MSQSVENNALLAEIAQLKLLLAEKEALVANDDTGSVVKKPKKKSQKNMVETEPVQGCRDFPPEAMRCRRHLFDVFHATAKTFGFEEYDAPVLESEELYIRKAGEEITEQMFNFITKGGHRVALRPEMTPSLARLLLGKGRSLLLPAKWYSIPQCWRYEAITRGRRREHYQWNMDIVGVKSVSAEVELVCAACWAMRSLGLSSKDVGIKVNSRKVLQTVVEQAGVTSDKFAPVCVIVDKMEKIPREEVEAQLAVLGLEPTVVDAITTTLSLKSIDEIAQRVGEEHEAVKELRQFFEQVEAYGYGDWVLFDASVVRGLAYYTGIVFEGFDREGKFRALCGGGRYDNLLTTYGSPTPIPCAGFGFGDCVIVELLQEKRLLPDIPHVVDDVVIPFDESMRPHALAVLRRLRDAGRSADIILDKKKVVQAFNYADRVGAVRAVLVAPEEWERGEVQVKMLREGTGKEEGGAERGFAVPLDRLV
UniProt Q8IDJ8, 1-583: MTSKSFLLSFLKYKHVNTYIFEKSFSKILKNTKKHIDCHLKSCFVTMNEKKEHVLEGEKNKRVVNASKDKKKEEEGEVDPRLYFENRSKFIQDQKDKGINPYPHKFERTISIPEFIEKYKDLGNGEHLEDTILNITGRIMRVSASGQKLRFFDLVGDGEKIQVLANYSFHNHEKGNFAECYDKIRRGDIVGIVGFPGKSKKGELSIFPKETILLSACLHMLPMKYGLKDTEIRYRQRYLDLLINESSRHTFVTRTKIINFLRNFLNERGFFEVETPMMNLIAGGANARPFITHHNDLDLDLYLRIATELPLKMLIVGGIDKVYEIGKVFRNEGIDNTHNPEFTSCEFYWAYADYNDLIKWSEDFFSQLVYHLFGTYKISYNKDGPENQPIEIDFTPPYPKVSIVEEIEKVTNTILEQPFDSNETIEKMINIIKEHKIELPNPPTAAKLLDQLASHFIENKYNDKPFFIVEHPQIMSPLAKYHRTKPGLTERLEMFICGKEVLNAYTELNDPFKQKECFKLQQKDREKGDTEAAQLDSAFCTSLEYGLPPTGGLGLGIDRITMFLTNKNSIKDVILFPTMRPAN

CoaBC: 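Coenzyme A biosynthesis protein CoaBC, Mycobacterium tuberculosis (UniProt P9WNZ1). Enzyme assay of CoaBC with a phosphate dye (Biomol Green) read at 650 nm. Compounds at 30 µM. Direction is inferred from only a few compounds that gave an IC50; most scored high, so higher reads as stronger inhibition. Most strong results did not repeat in a second test. Size under these conditions: about 67,000 compounds, about 40 of them at 50% or above in at least one test.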
MtTrpRS: 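Tryptophan-tRNA ligase, Mycobacterium tuberculosis (UniProt P9WFT3). Enzyme assay of tryptophanyl-tRNA synthetase; the read-out is not stated. Tested at 10 µM. Higher most likely means stronger inhibition; the record gives no direction and few retests gave an IC50. Size under these conditions: about 65,000 compounds, about 64 of them at 50% or above in at least one test.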
TcHisRS: 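Enzyme assay of histidyl-tRNA synthetase; the read-out is not stated. Target: Histidine-tRNA ligase, Trypanosoma cruzi CL Brener (UniProt Q4DA54). Concentration: 30 µM. The record gives no direction; compounds that gave an IC50 in retests scored well above the rest, so higher reads as stronger inhibition. Size under these conditions: about 69,000 compounds, about 31 of them at 50% or above in at least one test.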
PfKRS1: 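Lysine-tRNA ligase, Plasmodium falciparum 3D7 (UniProt Q8IDJ8). Enzyme assay of the cytosolic lysyl-tRNA synthetase in 384-well plates, read by luminescence. Compounds at 30 µM. Higher reads as stronger inhibition, judged from the few compounds that gave an IC50. About 69,000 compounds were tested under these conditions; 0.071% (about 49) showed 50% or more at least once.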

Values are the deposited “Percent Effect”, in %.
The controls that fix the scale are not given in the record; negative values are as filed.
Compounds were drawn at random from those tested, without regard to their results.

Compound: Cc1ncsc1C(=O)N1CCc2nnc(C3CCCCN3C)n2CC1 (stereo not shown)
CoaBC: 6.621
MtTrpRS: 1.76
TcHisRS: 2.571
PfKRS1: 1.736

Compound: c1csc(-c2nc(CN3CCCCC3Cn3cccn3)co2)c1 (stereo not shown)
CoaBC: 3.713
MtTrpRS: 3.47
TcHisRS: 1.84
PfKRS1: 3.208

Compound: Cc1csc2ncc(-c3ccnc(NC4CCOCC4)n3)c(=O)n12
CoaBC: -1.566
TcHisRS: 2.26
PfKRS1: 1.749

Compound: Cc1nc(C#N)c(N2CCC(c3nc(-c4ccccc4)no3)CC2)o1
CoaBC: 1.631
MtTrpRS: 1.025
TcHisRS: -5.366
PfKRS1: 3.774

Compound: CC(NC(=O)N1CCSC(C)(C)C1)c1noc(-c2ccccc2)n1 (stereo not shown)
CoaBC: -2.016
MtTrpRS: -4.054
TcHisRS: 5.028
PfKRS1: -0.3399

Compound: COCC1CCN(C(=O)c2cn(Cc3ccccc3F)nn2)CC1
CoaBC: -1.781
MtTrpRS: 4.51
TcHisRS: 0
PfKRS1: 4.326

Compound: Cn1ccc(CNC(=O)N2CCC(C3(C)OCCO3)CC2)c1
CoaBC: 11.48
MtTrpRS: -0.4854
TcHisRS: 1.961
PfKRS1: -1.731

Compound: Cc1cc(NCCCc2c(C)noc2C)nc(N)n1
CoaBC: -1.887
MtTrpRS: 3.541
TcHisRS: 3.093
PfKRS1: 2.321

Compound: O=c1ccc(-c2cccs2)nn1CN1CCN(C2CCS(=O)(=O)C2)CC1 (stereo not shown)
CoaBC: 0.7576
MtTrpRS: -2.031
TcHisRS: -0.5848
PfKRS1: 3.297

Compound: Cc1noc(-c2ccc(-n3ncc(C(=O)O)c3C)nc2)n1
CoaBC: -3.066
MtTrpRS: -6.313
TcHisRS: 0
PfKRS1: -0.3143

Compound: Cc1ccc(N2C[C@H](C(=O)NCC3CC3)[C@@H]3CCO[C@@H]3C2)nn1
CoaBC: 4.061
MtTrpRS: -5.844
TcHisRS: 1.97
PfKRS1: -7.198

Compound: Cc1cccc(N2CCC3(CCN(Cc4ccccn4)CC3)CC2)n1
CoaBC: -12.83
MtTrpRS: 0.541
TcHisRS: 3.448
PfKRS1: -0.7757

Compound: COCCNc1nnc(-c2ccc(C)nc2)s1
CoaBC: -3.263
MtTrpRS: 4.137
TcHisRS: 17.67
PfKRS1: 0.778

Compound: COCCc1nnc(NC(=O)Cc2ccccc2Cl)o1
CoaBC: 3.576
MtTrpRS: -0.618
TcHisRS: 4.848
PfKRS1: 4.498

Compound: Cc1ccccc1Cc1nc(CSc2nnc(N)n2C2CC2)no1
CoaBC: -1.106
MtTrpRS: -4.516
TcHisRS: 2.381
PfKRS1: -6.761

Compound: CCn1nc(C)c(NC(=O)CN2CCC(c3ccccc3Cl)C2)c1C (stereo not shown)
CoaBC: -5.861
MtTrpRS: -5.369
TcHisRS: 1.288
PfKRS1: -2.901

Compound: Cc1c(C(=O)NCCC(=O)N2CCCC2)oc2c(F)cccc12
CoaBC: 5.242
MtTrpRS: -0.1211
TcHisRS: -14.29
PfKRS1: 5.683

Compound: O=C(NCCOc1ncc(Cl)cc1Cl)c1ccoc1
CoaBC: 4.645
MtTrpRS: 2.897
TcHisRS: 1.031
PfKRS1: -2.482

Compound: Cn1cc(CN2CCC3(CC2)CC(Nc2nccs2)CO3)cn1 (stereo not shown)
CoaBC: 2.25
MtTrpRS: 3.597
TcHisRS: 13.73
PfKRS1: 0.7389

Compound: COCc1nc(C(=O)N2CCN(c3nccc(OC)n3)CC2)cs1
CoaBC: 8.584
MtTrpRS: 10.64
TcHisRS: -3.488
PfKRS1: -1.479

Compound: CCc1cc(N2CCC(NCCc3nc(C)c(C)s3)CC2)nc(C)n1
CoaBC: 7.654
MtTrpRS: 0.000014
TcHisRS: 6.468
PfKRS1: 0.5658

Repeated from the top, 2 entries:

{"compound": "Cc1ncsc1C(=O)N1CCc2nnc(C3CCCCN3C)n2CC1", "stereo": "stereo not shown", "CoaBC": 6.621, "MtTrpRS": 1.76, "TcHisRS": 2.571, "PfKRS1": 1.736}
{"compound": "c1csc(-c2nc(CN3CCCCC3Cn3cccn3)co2)c1", "stereo": "stereo not shown", "CoaBC": 3.713, "MtTrpRS": 3.47, "TcHisRS": 1.84, "PfKRS1": 3.208}

Data taken from ChEMBL document CHEMBL3988442, “University of Dundee, Small-Polar-MMV Screening Library” (2021).